Publication PMC7950295
These are yes or no findings as the source states them, for the method shown. Binding seen in cells or lysates may run through a third protein. Some entries that bind do so weakly or less than the wild type.

The chains behind the UniProt entries cited, without tags or fusion partners. Where a name states a change or a piece, a line headed by the entry shows the natural chain unless it says otherwise.
UniProt Q13315: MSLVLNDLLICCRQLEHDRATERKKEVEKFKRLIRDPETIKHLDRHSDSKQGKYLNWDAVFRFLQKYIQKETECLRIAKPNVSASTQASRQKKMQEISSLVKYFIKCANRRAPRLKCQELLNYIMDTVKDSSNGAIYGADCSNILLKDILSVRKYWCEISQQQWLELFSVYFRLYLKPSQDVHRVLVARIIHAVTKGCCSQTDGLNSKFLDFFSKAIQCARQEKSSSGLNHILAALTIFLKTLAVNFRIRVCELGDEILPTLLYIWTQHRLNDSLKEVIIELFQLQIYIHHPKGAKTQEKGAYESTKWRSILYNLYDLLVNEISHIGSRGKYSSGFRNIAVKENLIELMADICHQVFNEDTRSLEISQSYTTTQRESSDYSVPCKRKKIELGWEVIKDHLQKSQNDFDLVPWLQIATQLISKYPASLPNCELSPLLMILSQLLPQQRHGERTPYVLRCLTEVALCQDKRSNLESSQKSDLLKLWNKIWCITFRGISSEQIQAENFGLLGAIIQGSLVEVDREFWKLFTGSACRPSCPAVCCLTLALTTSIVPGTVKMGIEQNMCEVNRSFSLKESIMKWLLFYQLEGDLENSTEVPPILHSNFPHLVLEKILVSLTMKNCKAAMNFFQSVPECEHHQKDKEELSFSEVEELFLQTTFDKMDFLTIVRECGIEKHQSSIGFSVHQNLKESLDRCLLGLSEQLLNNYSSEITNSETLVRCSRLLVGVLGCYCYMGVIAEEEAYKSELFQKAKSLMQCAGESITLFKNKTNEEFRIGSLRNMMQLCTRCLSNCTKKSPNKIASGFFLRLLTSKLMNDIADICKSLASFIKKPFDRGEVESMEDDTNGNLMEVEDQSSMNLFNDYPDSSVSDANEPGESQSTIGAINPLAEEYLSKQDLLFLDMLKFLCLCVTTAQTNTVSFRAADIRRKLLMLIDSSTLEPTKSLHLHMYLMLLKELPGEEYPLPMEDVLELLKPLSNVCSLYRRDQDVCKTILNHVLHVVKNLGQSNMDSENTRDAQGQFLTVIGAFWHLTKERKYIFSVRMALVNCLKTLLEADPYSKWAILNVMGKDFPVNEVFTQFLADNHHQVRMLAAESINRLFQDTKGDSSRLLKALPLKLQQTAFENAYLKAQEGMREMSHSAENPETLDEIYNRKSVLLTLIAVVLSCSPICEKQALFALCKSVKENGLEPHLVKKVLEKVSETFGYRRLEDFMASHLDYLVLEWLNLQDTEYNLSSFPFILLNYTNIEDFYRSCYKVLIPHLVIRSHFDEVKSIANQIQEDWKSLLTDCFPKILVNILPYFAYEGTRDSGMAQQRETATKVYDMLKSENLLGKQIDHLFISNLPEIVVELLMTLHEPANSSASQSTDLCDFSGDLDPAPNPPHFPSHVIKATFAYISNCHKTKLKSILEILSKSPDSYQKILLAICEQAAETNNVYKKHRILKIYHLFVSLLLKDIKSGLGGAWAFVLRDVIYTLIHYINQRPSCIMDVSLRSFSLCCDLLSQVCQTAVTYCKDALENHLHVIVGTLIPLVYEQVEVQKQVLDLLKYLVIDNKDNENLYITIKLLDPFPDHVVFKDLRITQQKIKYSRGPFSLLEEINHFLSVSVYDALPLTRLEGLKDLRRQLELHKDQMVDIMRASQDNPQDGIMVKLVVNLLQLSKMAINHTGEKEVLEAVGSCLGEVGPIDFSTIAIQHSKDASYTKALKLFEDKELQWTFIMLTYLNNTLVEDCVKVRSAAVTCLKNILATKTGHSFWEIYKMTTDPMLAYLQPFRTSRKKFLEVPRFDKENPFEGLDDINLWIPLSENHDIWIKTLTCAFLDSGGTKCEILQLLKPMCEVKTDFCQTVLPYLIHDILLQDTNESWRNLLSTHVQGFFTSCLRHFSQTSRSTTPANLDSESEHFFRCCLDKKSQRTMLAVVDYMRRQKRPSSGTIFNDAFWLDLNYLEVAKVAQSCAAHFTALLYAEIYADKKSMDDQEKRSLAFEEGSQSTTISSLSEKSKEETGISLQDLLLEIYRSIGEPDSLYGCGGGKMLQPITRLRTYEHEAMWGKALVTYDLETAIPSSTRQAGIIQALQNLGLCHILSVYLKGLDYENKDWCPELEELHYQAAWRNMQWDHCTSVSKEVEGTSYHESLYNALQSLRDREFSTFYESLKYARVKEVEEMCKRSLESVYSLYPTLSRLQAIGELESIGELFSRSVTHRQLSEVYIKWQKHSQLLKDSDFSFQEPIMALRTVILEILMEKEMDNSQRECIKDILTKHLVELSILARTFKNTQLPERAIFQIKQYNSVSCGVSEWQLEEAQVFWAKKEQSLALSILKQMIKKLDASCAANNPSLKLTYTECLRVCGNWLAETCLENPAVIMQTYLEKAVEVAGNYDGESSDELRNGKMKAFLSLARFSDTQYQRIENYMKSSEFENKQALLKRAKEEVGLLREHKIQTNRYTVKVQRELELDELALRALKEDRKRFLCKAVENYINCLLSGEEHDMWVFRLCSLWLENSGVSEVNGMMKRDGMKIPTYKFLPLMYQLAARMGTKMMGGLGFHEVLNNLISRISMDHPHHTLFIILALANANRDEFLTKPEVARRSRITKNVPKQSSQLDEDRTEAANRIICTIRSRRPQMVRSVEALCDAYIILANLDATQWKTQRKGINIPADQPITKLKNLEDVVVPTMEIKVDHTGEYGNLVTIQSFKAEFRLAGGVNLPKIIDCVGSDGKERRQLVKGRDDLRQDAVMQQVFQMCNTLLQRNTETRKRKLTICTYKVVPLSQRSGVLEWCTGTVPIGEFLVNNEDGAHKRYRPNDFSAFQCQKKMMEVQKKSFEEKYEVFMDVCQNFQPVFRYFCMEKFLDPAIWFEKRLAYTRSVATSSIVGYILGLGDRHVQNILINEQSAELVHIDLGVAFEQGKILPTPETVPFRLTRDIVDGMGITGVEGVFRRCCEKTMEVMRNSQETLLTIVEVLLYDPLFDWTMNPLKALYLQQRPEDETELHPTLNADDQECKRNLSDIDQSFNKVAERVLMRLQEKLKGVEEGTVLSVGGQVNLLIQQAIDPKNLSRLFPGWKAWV

Biological target: ataxia-telangiectasia mutated kinase (human (endogenous in SRA01/04)) (UniProt Q13315)
Experiment: co-IP; SRA01/04 cell lysate; 5 ug primary antibody or IgG (negative control) on protein A/G magnetic beads (Pierce Direct Magnetic IP/Co-IP Kit), 4 h at 4 C, 3 washes with lysis buffer, Western blot

B1: UBX domain-containing protein 1 (protein, UniProt Q04323 1-297)
chain: MAELTALESLIEMGFPRGRAEKALALTGNQGIEAAMDWLMEHEDDPDVDEPLETPLGHILGREPTSSEQGGLEGSGSAAGEGKPALSEEERQEQTKRMLELVAQKQREREEREEREALERERQRRRQGQELSAARQRLQEDEMRRAAEERRREKAEELAARQRVREKIERDKAERAKKYGGSVGSQPPPVAPEPGPVPSSPSQEPPTKREYDQCRIQVRLPDGTSLTQTFRAREQLAAVRLYVELHRGEELGGGQDPVQLLSGFPRRAFSEADMERPLQELGLVPSAVLIVAKKCPS
- binding: binds
